In US11021686B2, “In vitro production of cholangiocytes” (CAMBRIDGE ENTERPRISE LIMITED, priority 2015, dated 2021):
Entries after “also recorded” stand apart in the source; their conditions may differ. Like-named read-outs stand apart in the source and are kept apart here. At least one compound was matched to its structure with a doubt left.

Columns and labels:
CLC organoids = assay: Measurement of intracellular calcium levels (Fluo-4) in CLC organoids; type: cell-based, human; conditions: CLC organoids loaded with Fluo-4; 1 μM Acetylcholine or 30 μM ATP
Procedure: Intracellular calcium signaling, regulated by stimuli such as acetylcholine and ATP constitutes a key second messenger for cholangiocytes (18). CLC organoids were incubated with 25 μM of the calcium indicator Fluo-4 AM (Life technologies) for 60 minutes at 37° C. and washed 3 times with William's E medium. Fresh William's E medium with supplements was added following the third wash. The organoids were stimulated with 1 μM of Acetylcholine (Sigma-Aldrich) or 30 μM of ATP (Sigma-Aldrich), while time lapse images were taken. Each measurement was repeated in triplicate. To calculate the number of cells responding to stimulation, the number of cells loaded with Fluo-4 AM was counted by 2 different researchers prior to the start of the experiment. Following stimulation with ATP or acetylcholine the number of responding cells (increase in fluorescence) was also counted and responsiveness was expressed as the ratio of responding cells over the total number of cells loaded with Fluo-4 AM. The statistical approach for smoothing the data and plotting bands for the confidence limits please see ‘Statistical analyses’.

hESC-Chol = conditions: Dianat et al (6), cited from earlier work

CC(=O)OCC[N+](C)(C)C [acetylcholine]
intracellular calcium levels (CLC organoids): increasing intracellular calcium levels; also recorded: an increase in intracellular calcium levels | responsiveness of hESC-Chol (hESC-Chol; listed as Acetylcholine): 40% | responsiveness of hESC-Chol (hESC-Chol): 40%
